# Assay results taken from the supplement of paper PMC4604168 (melanoma cell lines).
# This is one part of the list. Single values are uncertain, as repeats are few or missing.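 Cells were imaged in 1,536-well plates, and nuclei stained with an antibody against cleaved PARP were counted against all DNA-stained nuclei to give the apoptosis fraction. Screening doses were chosen to leave most cells alive, and resting and induced cleaved-PARP levels differ strongly between cell lines.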
# Columns and labels:
# Assay in all cases: cleaved PARP positive nuclei fraction relative to DMSO control; melanoma cells; higher = more apoptosis
# Details in all cases: library dose: low library concentration; 72 h
# 501Mel = test system: 501Mel
# A101D = test system: A101D
# A2058 = test system: A2058
# A375 = test system: A375
# C32 = test system: C32
# CBRC008 = test system: CBRC008 (line from a melanoma biopsy)
# CBRC014 = test system: CBRC014 (line from a melanoma biopsy)
# CBRC016 = test system: CBRC016 (line from a melanoma biopsy)
# CBRC017 = test system: CBRC017 (line from a melanoma biopsy)
# CBRC034 = test system: CBRC034 (line from a melanoma biopsy)
# COLO792 = test system: COLO792
# COLO800 = test system: COLO800
# COLO829 = test system: COLO829
# G361 = test system: G361
# IPC-298 = test system: IPC-298
# IST-MEL1 = test system: IST-MEL1
# LB2518-MEL = test system: LB2518-MEL
# LOXIMVI = test system: LOXIMVI
# MEL-HO = test system: MEL-HO
SMILES,cleaved PARP positive nuclei fraction (501Mel),cleaved PARP positive nuclei fraction (A101D),cleaved PARP positive nuclei fraction (A2058),cleaved PARP positive nuclei fraction (A375),cleaved PARP positive nuclei fraction (C32),cleaved PARP positive nuclei fraction (CBRC008),cleaved PARP positive nuclei fraction (CBRC014),cleaved PARP positive nuclei fraction (CBRC016),cleaved PARP positive nuclei fraction (CBRC017),cleaved PARP positive nuclei fraction (CBRC034),cleaved PARP positive nuclei fraction (COLO792),cleaved PARP positive nuclei fraction (COLO800),cleaved PARP positive nuclei fraction (COLO829),cleaved PARP positive nuclei fraction (G361),cleaved PARP positive nuclei fraction (IPC-298),cleaved PARP positive nuclei fraction (IST-MEL1),cleaved PARP positive nuclei fraction (LB2518-MEL),cleaved PARP positive nuclei fraction (LOXIMVI),cleaved PARP positive nuclei fraction (MEL-HO)
"CC[C@]1(O)C[C@H]2CN(CCc3c([nH]c4ccccc34)[C@@](C(=O)OC)(c3cc4c(cc3OC)N(C=O)[C@H]3[C@@](O)(C(=O)OC)[C@H](OC(C)=O)[C@]5(CC)C=CCN6CC[C@]43[C@@H]65)C2)C1 [vincristine] + Cc1ccc(Nc2nccc(N(C)c3ccc4c(C)n(C)nc4c3)n2)cc1S(N)(=O)=O [Pazopanib] (first compound 0.0001 µM, partner dose 0.4 µM)",90.2%,147%,299%,263%,81.3%,290%,113%,92.6%,87.8%,268%,97%,41.3%,60%,85.7%,65.1%,58.8%,115%,66.4%,130%
"CCCCCCCCCCCCCCCCCCOP(=O)([O-])OC1CC[N+](C)(C)CC1 [Perifosine] + Cc1cc(Nc2cc(N3CCN(C)CC3)nc(/C=C/c3ccccc3)n2)n[nH]1 [ENMD2076] (first compound 0.4 µM, partner dose 0.04 µM)",168%,119%,320%,272%,80%,165%,169%,66.8%,83.8%,33.6%,85.4%,135%,128%,113%,83.6%,116%,52%,75.5%,78.8%
"Cc1cn(-c2cc(NC(=O)c3ccc(C)c(Nc4nccc(-c5cccnc5)n4)c3)cc(C(F)(F)F)c2)cn1 [nilotinib] + CS(=O)(=O)CCNCc1ccc(-c2ccc3ncnc(Nc4ccc(OCc5cccc(F)c5)c(Cl)c4)c3c2)o1 [lapatinib] (first compound 0.2 µM, partner dose 0.8 µM)",84.4%,141%,197%,157%,44.9%,223%,87%,83.1%,110%,87.5%,98.5%,84.6%,117%,69.9%,173%,62.1%,350%,82.3%,82.8%
"CCCCCCCCCCCCCCCCCCOP(=O)([O-])OC1CC[N+](C)(C)CC1 [Perifosine] + Clc1ccc(Nc2nnc(Cc3ccncc3)c3ccccc23)cc1 [vatalanib] (first compound 0.4 µM, partner dose 2 µM)",108%,130%,82.1%,157%,79.6%,63.5%,115%,85.2%,101%,74%,100%,86.3%,92%,197%,92.1%,33%,102%,61.8%,102%
"CCCCCCCCCCCCCCCCCCOP(=O)([O-])OC1CC[N+](C)(C)CC1 [Perifosine] + CCCCCCCCc1ccc(CCC(N)(CO)CO)cc1 [fingolimod] (first compound 0.4 µM, partner dose 2 µM)",106%,43.3%,83.4%,245%,84.1%,23.7%,92.3%,97.5%,193%,74.3%,26.4%,119%,39%,109%,86%,33.4%,51.1%,63.9%,57.2%
"O=C(Nc1cc(C(F)(F)F)cc(C(F)(F)F)c1)c1cc(Cl)ccc1O + CNC(=O)c1cc(Oc2ccc(NC(=O)Nc3ccc(Cl)c(C(F)(F)F)c3)cc2)ccn1 [sorafenib] (first compound 0.016 µM, partner dose 0.4 µM)",92.4%,142%,43.9%,85.9%,80.1%,81.4%,98.5%,83.5%,105%,121%,56.7%,97.7%,105%,128%,92.2%,85.8%,27.5%,127%,133%
"COc1cc([C@@H]2c3cc4c(cc3[C@@H](O[C@@H]3O[C@@H]5CO[C@@H](C)O[C@H]5[C@H](O)[C@H]3O)[C@H]3COC(=O)[C@H]23)OCO4)cc(OC)c1O [etoposide] + CO[C@H]1C[C@@H]2CC[C@@H](C)[C@@](O)(O2)C(=O)C(=O)N2CCCC[C@H]2C(=O)O[C@H]([C@H](C)C[C@@H]2CC[C@@H](OCCO)[C@H](OC)C2)CC(=O)[C@H](C)/C=C(\C)[C@@H](O)[C@@H](OC)C(=O)[C@H](C)C[C@H](C)/C=C/C=C/C=C/1C [everolimus] (first compound 0.02 µM, partner dose 0.02 µM)",549%,109%,48.9%,601%,87.6%,234%,105%,65.7%,113%,71.2%,177%,17.7%,163%,57.7%,126%,224%,144%,85.5%,99.8%
"Cc1cn(-c2cc(NC(=O)c3ccc(C)c(Nc4nccc(-c5cccnc5)n4)c3)cc(C(F)(F)F)c2)cn1 [nilotinib] + COc1ccc(Cl)c(Nc2nc3ccccc3nc2NS(=O)(=O)c2cccc(NC(=O)C(C)(C)N)c2)c1 [XL147] (first compound 0.2 µM, partner dose 0.8 µM)",125%,93.3%,105%,54.1%,245%,365%,119%,270%,109%,89.7%,72.8%,50.5%,92.6%,93.4%,138%,131%,54.3%,29.4%,120%
